For series [1], the target named is T1, AND-1 full length (human) (UniProt O75717).
T1 sequence (looked up): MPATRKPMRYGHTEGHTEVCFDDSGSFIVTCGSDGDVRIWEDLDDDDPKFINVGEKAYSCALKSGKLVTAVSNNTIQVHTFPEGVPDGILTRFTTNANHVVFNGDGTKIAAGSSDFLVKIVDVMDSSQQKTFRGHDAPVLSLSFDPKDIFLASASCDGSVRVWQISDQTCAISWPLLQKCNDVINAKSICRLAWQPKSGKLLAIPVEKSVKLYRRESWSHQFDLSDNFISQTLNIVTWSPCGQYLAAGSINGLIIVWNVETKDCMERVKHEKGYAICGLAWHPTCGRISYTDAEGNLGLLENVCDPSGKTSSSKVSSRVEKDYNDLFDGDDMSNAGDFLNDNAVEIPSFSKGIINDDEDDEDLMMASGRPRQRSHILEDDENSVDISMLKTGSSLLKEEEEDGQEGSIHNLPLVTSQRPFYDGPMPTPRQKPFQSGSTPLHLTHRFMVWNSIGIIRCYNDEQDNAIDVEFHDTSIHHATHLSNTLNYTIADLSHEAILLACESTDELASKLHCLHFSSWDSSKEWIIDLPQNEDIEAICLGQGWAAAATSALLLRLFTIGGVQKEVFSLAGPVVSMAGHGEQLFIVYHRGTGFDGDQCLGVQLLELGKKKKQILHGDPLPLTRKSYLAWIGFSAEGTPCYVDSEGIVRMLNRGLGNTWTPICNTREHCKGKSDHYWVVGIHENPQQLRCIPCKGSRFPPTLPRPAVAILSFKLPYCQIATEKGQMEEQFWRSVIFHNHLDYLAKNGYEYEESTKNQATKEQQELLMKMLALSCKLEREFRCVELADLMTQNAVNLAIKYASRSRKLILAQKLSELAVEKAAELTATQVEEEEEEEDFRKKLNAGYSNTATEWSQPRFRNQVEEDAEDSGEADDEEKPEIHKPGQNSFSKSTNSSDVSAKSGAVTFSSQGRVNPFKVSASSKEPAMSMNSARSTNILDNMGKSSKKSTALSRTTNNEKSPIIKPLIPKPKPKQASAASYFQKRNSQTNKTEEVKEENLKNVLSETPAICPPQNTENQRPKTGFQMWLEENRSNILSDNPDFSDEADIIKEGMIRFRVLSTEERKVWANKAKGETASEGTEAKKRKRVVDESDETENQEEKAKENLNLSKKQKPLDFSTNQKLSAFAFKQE
The series is described as follows: EMSA. To be noted: 5 mM MgCl2, stable complex, lower apparent affinity than ssDNA and fDNA; EMSA: 25 mM HEPES pH 7.2, 100 mM KCl, 5 mM MgCl2, TCEP, 3 uM DNA, 4 C; recombinant protein; residues 1-1129; protein details: His10-myc; label: 5' 6FAM on strand 1.

Series [2] has as its target T1, AND-1 full length (human). The experiment in a line: fluorescence anisotropy. To be noted: value printed only in figure panel; FP: 25 mM HEPES pH 7.2, 100 mM KCl, 0.5 mM TCEP, 20 nM DNA, 25 C; recombinant protein; residues 1-1129; protein details: His10-myc; label: 5' 6FAM on strand 1. (In general: Fluorescence polarisation rises when a labelled molecule tumbles more slowly, as on binding a larger partner.)

Series [3] concerns the target T2, MBP-AND-1 1017-1129 (human) (UniProt O75717).
T2 sequence (looked up): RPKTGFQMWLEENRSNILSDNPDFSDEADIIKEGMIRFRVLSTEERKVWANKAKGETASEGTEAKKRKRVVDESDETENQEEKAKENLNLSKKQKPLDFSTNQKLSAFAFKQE
The series is described as follows: EMSA. To be noted: protein excess, text: HMG box not involved in DNA binding; EMSA: 25 mM HEPES pH 7.2, 100 mM KCl, 5 mM MgCl2, TCEP, 3 uM DNA, 4 C; recombinant protein; residues 1017-1129; protein details: His6-MBP; label: 5' 6FAM; single-stranded DNA.

In series [4] the target is T3, MBP-AND-1 HMG box (human) (UniProt O75717).
T3 sequence (looked up): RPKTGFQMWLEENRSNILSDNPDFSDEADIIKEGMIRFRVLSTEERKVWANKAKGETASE
The experiment in a line: EMSA. The conditions noted are these: protein excess, text: HMG box not involved in DNA binding; EMSA: 25 mM HEPES pH 7.2, 100 mM KCl, 5 mM MgCl2, TCEP, 3 uM DNA, 4 C; recombinant protein; residues 1017-1076; protein details: His6-MBP; label: 5' 6FAM; single-stranded DNA.

In series [5] the target is T4, MBP-AND-1CT (human) (UniProt O75717).
T4 sequence (looked up): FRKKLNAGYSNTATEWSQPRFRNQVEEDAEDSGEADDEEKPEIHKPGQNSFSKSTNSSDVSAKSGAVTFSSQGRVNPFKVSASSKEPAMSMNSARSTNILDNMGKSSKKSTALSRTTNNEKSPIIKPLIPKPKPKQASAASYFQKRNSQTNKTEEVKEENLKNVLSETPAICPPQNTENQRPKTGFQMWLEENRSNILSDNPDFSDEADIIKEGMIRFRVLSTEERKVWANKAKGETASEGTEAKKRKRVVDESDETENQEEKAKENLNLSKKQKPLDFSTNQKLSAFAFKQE
The experiment in a line: EMSA. To be noted: 5 mM MgCl2; EMSA: 25 mM HEPES pH 7.2, 100 mM KCl, 5 mM MgCl2, TCEP, 3 uM DNA, 4 C; recombinant protein; residues 837-1129; protein details: His6-MBP; label: 5' 6FAM; single-stranded DNA.

In series [6] the target is T5, AND-1 SepB+CT (human) (UniProt O75717).
T5 sequence (looked up): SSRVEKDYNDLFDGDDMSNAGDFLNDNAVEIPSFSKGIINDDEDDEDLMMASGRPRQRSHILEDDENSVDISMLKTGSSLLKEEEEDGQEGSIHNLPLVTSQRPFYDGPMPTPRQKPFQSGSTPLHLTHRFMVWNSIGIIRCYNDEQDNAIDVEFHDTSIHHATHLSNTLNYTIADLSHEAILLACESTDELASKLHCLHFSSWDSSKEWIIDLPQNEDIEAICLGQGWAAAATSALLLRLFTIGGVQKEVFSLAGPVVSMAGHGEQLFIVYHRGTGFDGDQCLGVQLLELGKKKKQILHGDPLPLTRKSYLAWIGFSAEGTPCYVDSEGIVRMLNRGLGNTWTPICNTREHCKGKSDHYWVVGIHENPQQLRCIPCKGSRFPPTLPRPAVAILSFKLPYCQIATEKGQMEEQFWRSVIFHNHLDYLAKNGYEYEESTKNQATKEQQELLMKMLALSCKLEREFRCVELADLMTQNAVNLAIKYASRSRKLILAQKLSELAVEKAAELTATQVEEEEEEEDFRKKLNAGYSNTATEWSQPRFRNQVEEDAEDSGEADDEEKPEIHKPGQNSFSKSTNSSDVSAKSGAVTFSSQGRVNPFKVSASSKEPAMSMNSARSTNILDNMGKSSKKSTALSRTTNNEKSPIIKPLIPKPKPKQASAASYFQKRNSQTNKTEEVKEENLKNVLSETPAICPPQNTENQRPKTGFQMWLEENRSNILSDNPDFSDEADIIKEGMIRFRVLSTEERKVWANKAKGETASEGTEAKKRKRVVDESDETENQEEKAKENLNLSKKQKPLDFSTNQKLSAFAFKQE
The experiment in a line: EMSA. To be noted: 2:1 protein:DNA; EMSA: 25 mM HEPES pH 7.2, 100 mM KCl, 5 mM MgCl2, TCEP, 3 uM DNA, 4 C; recombinant protein; residues 316-1129; label: 5' 6FAM; single-stranded DNA. Background: A gel shift assay detects complexes by their altered migration in electrophoresis.

For some of these results: Negatives hold for the conditions tested. For some of these results: At least one verdict rests on a figure or table, not on a statement of the authors. Where a protein sequence is shown, tags need not be part of it. For some of these results: The exact form of at least one protein or probe is not confirmed. For some of these results: A weaker result is weaker than the reference pair of the same experiment.

For “CTTCCGAGACCTTGCCCATCCCGTAGAACCTGTTATCCAA (double strand) [dsDNA (oligos A+B)]”, the binding result in series [1] is “binds more weakly”; in series [2], “binds”.
Regarding “ATGGTGTGTGTAGGTTAATGTGAGGAGGAGAGGTGAAGAAGGAGGAGAGAAGAAGGAGGC [ssDNA 60mer]”, the binding result in series [3] and in series [4] was “no binding” in each case.
Take “CTTCCGAGACCTTGCCCATCCCGTAGAACCTGTTATCCAA [ssDNA 40mer (oligo A)]”: the binding result in series [5] and in series [6] was “binds” in each case.
In the case of “CTTCCGAGACCTTGCCCATCCCGTAGAACCTGTTATCCAA / GCTACCTTTGAACCTACGATGATGGGCAAGGTCTCGGAAG [fDNA (oligos A+C)]”, the binding result in series [2] is recorded as “binds”.

(Values after publication PMC5717350, “The human CTF4-orthologue AND-1 interacts with DNA polymerase α/primase via its unique C-terminal HMG box” (Open Biology, 2017).)
